US4937073A, “Reformed vetiver oil and vetiverol, process for preparing the same, and perfumery composition comprising the same” (Kao Corporation, priority 1988, dated 1990)

Experiments:
[1] = Decomposition of khushimol on heating vetiver oil with an acid; conditions: Example 5, same conditions as in Example 4 (120° C., 8 hours)
[2] = Evaluation of fragrance/odor

| SMILES | Reduced Rate (%) Khushimol [1] | odor strength versus khusimol ([2]; compared with the odor of khusimol) | effect on the odor of khusimol ([2]; odor of khusimol inherent to vetiverol) |
| --- | --- | --- | --- |
| O=C(O)CC(O)(CC(=O)O)C(=O)O [Citric acid] | 39.9% | – | – |
| O=C(O)c1cccnc1 [Nicotinic acid] | 19.3% | – | – |
| C/C(CO)=C1/CCC2=CCCC(C)C2(C)C1 (stereo not shown) [isovalencenol] | – | stronger than the odor of khusimol | offset the odor of khusimol inherent to vetiverol |
